Peptide text beside a SMILES is read from it.
System: Jurkat T cells
Experiment: Untargeted metabolomics of supernatants and cell pellets of apoptotic (UV) versus live Jurkat T cells
Format: cell-based, human
Conditions: for Fold Change (FAp/FL)-Cell / Fold Change (FAp/FL)-Supe: Jurkat T cells, UV, apoptotic versus live; for Fold Change (FAp/FL)-Cell: cell pellet decrease; for Fold Change (FAp/FL)-Supe: supernatant enrichment; for Fold Change (FAp/FL): Jurkat UV metabolite release, apoptotic versus live supernatant, 4 hours after apoptosis induction

Compound | Fold Change (FAp/FL)-Cell | Fold Change (FAp/FL)-Supe | Fold Change (FAp/FL) | Release of metabolite into apoptotic cell supernatants (in words) (Jurkat T cell supernatants, live and apoptotic conditions)
NCCOP(=O)(O)OCC(O)CO (stereo not shown) [glycerophosphoethanolamine] | 0.07 | 37.37 | 37.37 | –
O=P(O)(OCC(O)CO)OCC(O)CO (stereo not shown) [glycerophosphoglycerol] | 0.27 | 5.32 | 5.32 | –
O=P(O)(OC[C@H](O)CO)OC1[C@H](O)[C@H](O)C(O)[C@H](O)[C@H]1O (stereo partly shown) [glycerophosphoinositol*, glycerophosphoinositol] | – | – | 16.30 | –
C[N+](C)(C)CCOP(=O)([O-])OC[C@H](O)CO [glycerophosphorylcholine (GPC), glycerophosphorylcholine] | 0.10 | 17.82 | 17.82 | –
CC(C)[C@H](NC(=O)CN)C(=O)O [glycylvaline] (H-Gly-Val-OH) | – | – | 9.36 | –
Nc1nc2nc[nH]c2c(=O)[nH]1 [guanine] | – | – | 203.22 | –
Nc1nc2c(ncn2[C@@H]2O[C@H](COP(=O)(O)O)[C@@H](O)[C@H]2O)c(=O)[nH]1 [guanosine 5′-monophosphate (5′-GMP), guanosine 5′-monophosphate] | 0.74 | 8.66 | 8.66 | –
Nc1nc2c(ncn2[C@@H]2O[C@H](CO)[C@@H](O)[C@H]2O)c(=O)[nH]1 [guanosine] | 0.54 | 11.79 | 11.79 | –
O=C(O)[C@H](O)[C@H](O)[C@@H](O)[C@H](O)CO [gulonic acid*, gulonic acid] | 0.11 | 2.71 | 2.71 | –
NCCS(=O)O [hypotaurine] | 0.06 | 35.43 | 35.43 | –
O=c1[nH]cnc2nc[nH]c12 [hypoxanthine] | 0.47 | 3.60 | 3.60 | –
OC[C@H]1O[C@@H](n2cnc3c(O)ncnc32)[C@H](O)[C@@H]1O [inosine] | 0.11 | 5.14 | 5.14 | –
CC[C@H](C)[C@H](N)C(=O)O [isoleucine] | 0.71 | 1.12 | 1.12 | –
CC(C)C[C@H](N)C(=O)O [leucine] | 0.70 | 1.24 | 1.24 | –
CCCCC/C=C\C/C=C\CCCCCCCC(=O)O [linoleate (18:2n6)] | – | – | 1.64 | –
NCCCC[C@H](N)C(=O)O [lysine] | – | – | 1.22 | –
O=C(O)CC(O)C(=O)O (stereo not shown) [malate] | 0.58 | 8.33 | 8.33 | –
C[S+]([O-])CC[C@H](N)C(=O)O (stereo partly shown) [methionine sulfoxide] | 0.83 | 1.16 | 1.16 | –
CSCC[C@H](N)C(=O)O [methionine] | 0.70 | 1.20 | 1.20 | –
CC(C(=O)O)C(=O)O [methylmalonate (MMA), methylmalonate] | 0.15 | 1.68 | 1.68 | –
NC(=O)c1ccc[n+]([C@@H]2O[C@H](CO)[C@@H](O)[C@H]2O)c1 [nicotinamide riboside] | 0.14 | 2.66 | 2.66 | –
NC(=O)c1cccnc1 [nicotinamide] | 0.17 | 1.25 | 1.25 | –
CCCCCC/C=C\CCCCCCCC(=O)O [palmitoleate (16:1n7)] | – | – | 2.45 | –
O=C(O)CNC(=O)Cc1ccccc1 [phenylacetylglycine] | – | – | 1.86 | –
N[C@@H](Cc1ccccc1)C(=O)O [phenylalanine] | 0.71 | 1.14 | 1.14 | –
O=C(O)C1CCCCN1 (stereo not shown) [pipecolate] | 0.08 | 1.28 | 1.28 | –

Compound | Fold Change (FAp/FL)-Cell | Fold Change (FAp/FL)-Supe | Fold Change (FAp/FL) | Release of metabolite into apoptotic cell supernatants (in words) (Jurkat T cell supernatants, live and apoptotic conditions)
O=C(O)[C@@H]1CCCN1 [proline] | 0.48 | 1.16 | 1.16 | –
O=C(O)CNC(=O)[C@@H]1CCCN1 [prolylglycine] (H-Pro-Gly-OH) | – | – | 7.37 | –
NCCCCN [putrescine] | – | – | – | not released
O=C(O)[C@H](O)[C@H](O)[C@H](O)CO [ribonate] | 0.20 | 1.31 | 1.31 | –
N[C@@H](CO)C(=O)O [serine] | 0.68 | 1.26 | 1.26 | –
NCCCCNCCCN [spermidine] | 0.26 | 8.91 | 8.91 | –
O=C(O)CCC(=O)O [succinate] | – | – | 1.55 | –
NCCS(=O)(=O)O [taurine] | 0.08 | 19.01 | 19.01 | –
O=C(O)[C@@H]1CSCN1 [thioproline] | – | – | 1.40 | –
C[C@@H](O)[C@H](N)C(=O)O [threonine] | 0.69 | 1.20 | 1.20 | –
Cc1cn([C@H]2C[C@H](O)[C@@H](CO)O2)c(=O)[nH]c1=O [thymidine] | – | – | 24.22 | –
NCCc1c[nH]c2ccccc12 [tryptamine] | – | – | 1.46 | –
N[C@@H](Cc1c[nH]c2ccccc12)C(=O)O [tryptophan] | 0.63 | 1.26 | 1.26 | –
N[C@@H](Cc1ccc(O)cc1)C(=O)O [tyrosine] | 0.76 | 1.14 | 1.14 | –
O=c1ccn([C@@H]2O[C@H](COP(=O)(O)O)[C@@H](O)[C@H]2O)c(=O)[nH]1 [uridine 5′-monophosphate (UMP), uridine 5′-monophosphate] | 0.37 | 9.39 | 9.39 | –
O=c1ccn([C@@H]2O[C@H](CO)[C@@H](O)[C@H]2O)c(=O)[nH]1 [uridine] | 0.66 | 25.03 | 25.03 | –
CC(C)[C@H](N)C(=O)O [valine] | 0.76 | 1.26 | 1.26 | –
N2-acetyllysine/N6-acetyllysine | – | – | 2.62 | –
N-acetylglucosamine/N-acetylgalactosamine | – | – | 6.04 | –
arabonate/xylonate | – | – | 1.48 | –
choline phosphate | 0.27 | 12.15 | 12.15 | –
dihydroxyacetone phosphate [dihydroxyacetone phosphate (DHAP)] | 0.59 | 9.87 | 9.87 | –
dimethyl arginine (SDMA + ADMA) | – | – | 1.83 | –
eicosenoate (20:1) | – | – | 2.49 | –
linolenate [alpha or gamma; (18:3n3 or 6)] | – | – | 1.91 | –
mannitol/sorbitol | 0.50 | 2.25 | 2.25 | –

Reference: patent US20230172877A1, “METABOLITES RELEASED FROM APOPTOTIC CELLS ACT AS NOVEL TISSUE MESSENGERS” (University of Virginia Patent Foundation, priority 2020, published 2023)
